Reference: PubChem BioAssay AID652054 (National Center for Advancing Translational Sciences (NCATS), 2013)
Among all 360,000 compounds or so, about 9,100 (2.5%) were called active. The inconclusive results got no clear call from the source; some entries with a clear call stand among them for comparison. Cut-off read from the data, not from the text of the source: active = max response below about -50%; inconclusive = no clear call, values can overlap the other calls; inactive = above that.
% is set by controls: 0 for no effect and ±100 for the full control effect.

Sequences of proteins named here, by UniProt entry; tags and fusion partners are left off.
UniProt P35462, whole entry, looked up: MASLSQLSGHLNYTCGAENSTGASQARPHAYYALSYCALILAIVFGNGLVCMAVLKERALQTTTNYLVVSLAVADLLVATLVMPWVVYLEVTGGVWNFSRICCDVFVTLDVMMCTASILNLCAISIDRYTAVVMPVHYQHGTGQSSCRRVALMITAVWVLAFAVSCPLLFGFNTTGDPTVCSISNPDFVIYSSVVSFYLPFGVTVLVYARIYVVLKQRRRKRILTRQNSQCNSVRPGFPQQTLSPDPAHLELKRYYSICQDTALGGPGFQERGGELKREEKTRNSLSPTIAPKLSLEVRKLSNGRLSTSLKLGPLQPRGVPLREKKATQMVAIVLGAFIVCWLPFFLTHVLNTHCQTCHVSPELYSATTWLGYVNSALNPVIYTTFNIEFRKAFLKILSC

What follows are compounds tested against D(3) dopamine receptor (Homo sapiens) (UniProt P35462) (assay: qHTS of D3 Dopamine Receptor Antagonist: qHTS). Conditions: D3R cells, DiscoveRx beta-arrestin luminescence, antagonist mode; stronger effect = lower value.
In short: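 Cells expressing the human receptor were seeded at 1500 cells/well, incubated overnight at 37 degrees C in 5% CO2, then exposed to library compounds with dopamine controls for 90 minutes at 37 degrees C before luminescent detection.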
`Oc1c(Br)cc(Br)cc1C=NCc1ccccc1` was tested, and the max response, negative = inhibition was active: -57.4%.
`CCOc1ccc(CN2C(=O)c3ccccc3C2C(=O)NC(C)CC)cc1OC` (stereo not given) was tested, and the max response, negative = inhibition was active: -63.1%.
In the case of `CC1(C)N([O-])C2=C(CCCC2)[N+]1=O`, the max response, negative = inhibition is reported as inactive: -2.68%.
With `CCCCCCCCN1C(=O)[C@H](CC(=O)NCc2ccccc2)C[C@@]2(C(=O)OC)CC(C)(C)CC=C12` the max response, negative = inhibition was inactive: 0.0475%.
`CCc1ccc(OCCNc2cc(N3CCNC(C)C3)ccc2[N+](=O)[O-])cc1` (stereo not given) was tested, and the max response, negative = inhibition was inconclusive: -37.5%.
For `CCN(CC)S(=O)(=O)c1cccc(NC(=O)CSc2nc3ccccc3[nH]2)c1`, the max response, negative = inhibition was inactive: 1.42%.
For `O=C(CP(=O)(c1ccccc1)c1ccccc1)N/N=C/c1cc(Br)cc(Br)c1O`, the max response, negative = inhibition was inconclusive: -32.6%.
`COc1ccc2c(c1OC)C(=O)OC2Nc1nc(-c2ccccc2)cs1` (stereo not given) was tested, and the max response, negative = inhibition was active: -73.2%.
With `Cc1ccc(C)c(OCC(O)CN2CCC(C)CC2)c1C` (stereo not given) the max response, negative = inhibition was inconclusive: -37.9%.
In the case of `CCNC(=O)Nc1cc2nc(C)n(Cc3ccc(Br)cc3)c2nc1C`, the max response, negative = inhibition is reported as inconclusive: -44.7%.
`O=C(c1ccc(Cl)cc1)C(CN1CCCCC1)c1ccccc1` (stereo not given) was tested, and the max response, negative = inhibition was active: -72.7%.
With `COC(=O)C1(C(=O)OC)C[C@H](c2ccc(OC)cc2)N(Cc2ccccc2OC)[C@@H]1c1ccccc1` the max response, negative = inhibition was inconclusive: -32.2%.
For `Cc1cc2nc(C)n(CCCN)c2cc1C`, the max response, negative = inhibition was inconclusive: -31.8%.
With `CCOC(=O)Cn1c(=O)c(-c2ccccc2NC)nc2ccccc21` the max response, negative = inhibition was inconclusive: -34.7%.
For `O=C(CSc1nncn1-c1ccccc1)Nc1ccccc1F`, the max response, negative = inhibition was inconclusive: -48.8%.
With `Cn1nc(C(C)(C)C)cc1C(=O)NCc1ccc(N2CCCC2=O)cc1` the max response, negative = inhibition was inactive: 30.7%.
In the case of `Cc1ncc([N+](=O)[O-])n1Cc1ccc(Br)cc1`, the max response, negative = inhibition is reported as inactive: 11.9%.
For `Oc1ccc(/C=N/n2c3ccccc3c3ccccc32)cc1`, the max response, negative = inhibition was inconclusive: -41.2%.
With `Cc1c(C#N)c(N=CN(C)C)c(C(=O)c2ccccc2)n1-c1ccccc1` the max response, negative = inhibition was inconclusive: -45.8%.
In the case of `Cc1ccc(S(=O)(=O)N[C@H](CNCc2ccccc2)C(C)C)cc1`, the max response, negative = inhibition is reported as active: -90.6%.
For `COc1ccc(CNC(=O)c2nccnc2CO)cc1`, the max response, negative = inhibition was inactive: 72.9%.
With `O=[N+]([O-])c1ccc(Cl)c(/C=N/n2c(COc3ccccc3)n[nH]c2=S)c1` the max response, negative = inhibition was active: -58.1%.
`CC(=O)NC(C)(c1ccccc1)c1nc(-c2ccc(S(C)(=O)=O)cc2)cs1` (stereo not given) was tested, and the max response, negative = inhibition was inconclusive: -32%.
With `Cn1c(C(=O)N2CCN(Cc3ccc4c(c3)OCO4)CC2)cc2sccc21` the max response, negative = inhibition was active: -96.1%.
With `CCn1c(=O)c(C(=O)Nn2c(C)nc3ccccc3c2=O)c(O)c2ccccc21` the max response, negative = inhibition was inconclusive: -34.1%.
